Compound in the assay: Cc1cc(ccc1-c1ccccc1)C(=O)N1CCCN(CC1)C(=O)CCl [compound 10]
The assay is described as follows: probe-labelled cysteine peptide fold change vs DMSO (competition) (log2 fold change); higher = less target engagement (more negative = stronger competition). To be noted: THP-1, incubation time: 4 h.

By UniProt entry, the sequences of proteins in these tests, tags left out. Where a name states a change or a piece, a line headed by the entry shows the natural chain unless it says otherwise.
UniProt P31939: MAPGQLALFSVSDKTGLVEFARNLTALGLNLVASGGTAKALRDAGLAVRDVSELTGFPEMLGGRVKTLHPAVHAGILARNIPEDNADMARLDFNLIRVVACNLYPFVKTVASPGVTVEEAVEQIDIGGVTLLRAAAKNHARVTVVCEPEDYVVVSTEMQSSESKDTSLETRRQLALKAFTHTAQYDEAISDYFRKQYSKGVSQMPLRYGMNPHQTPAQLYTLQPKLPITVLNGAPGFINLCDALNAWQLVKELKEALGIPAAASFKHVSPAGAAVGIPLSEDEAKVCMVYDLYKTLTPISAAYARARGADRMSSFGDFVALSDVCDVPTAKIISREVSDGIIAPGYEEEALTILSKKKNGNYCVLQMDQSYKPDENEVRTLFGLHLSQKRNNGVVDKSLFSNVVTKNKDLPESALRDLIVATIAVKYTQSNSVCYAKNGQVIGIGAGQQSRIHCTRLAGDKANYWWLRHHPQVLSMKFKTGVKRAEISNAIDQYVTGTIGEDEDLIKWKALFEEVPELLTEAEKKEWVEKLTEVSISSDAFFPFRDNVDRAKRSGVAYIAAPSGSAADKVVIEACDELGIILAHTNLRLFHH
UniProt Q8N3C0, whole entry, looked up: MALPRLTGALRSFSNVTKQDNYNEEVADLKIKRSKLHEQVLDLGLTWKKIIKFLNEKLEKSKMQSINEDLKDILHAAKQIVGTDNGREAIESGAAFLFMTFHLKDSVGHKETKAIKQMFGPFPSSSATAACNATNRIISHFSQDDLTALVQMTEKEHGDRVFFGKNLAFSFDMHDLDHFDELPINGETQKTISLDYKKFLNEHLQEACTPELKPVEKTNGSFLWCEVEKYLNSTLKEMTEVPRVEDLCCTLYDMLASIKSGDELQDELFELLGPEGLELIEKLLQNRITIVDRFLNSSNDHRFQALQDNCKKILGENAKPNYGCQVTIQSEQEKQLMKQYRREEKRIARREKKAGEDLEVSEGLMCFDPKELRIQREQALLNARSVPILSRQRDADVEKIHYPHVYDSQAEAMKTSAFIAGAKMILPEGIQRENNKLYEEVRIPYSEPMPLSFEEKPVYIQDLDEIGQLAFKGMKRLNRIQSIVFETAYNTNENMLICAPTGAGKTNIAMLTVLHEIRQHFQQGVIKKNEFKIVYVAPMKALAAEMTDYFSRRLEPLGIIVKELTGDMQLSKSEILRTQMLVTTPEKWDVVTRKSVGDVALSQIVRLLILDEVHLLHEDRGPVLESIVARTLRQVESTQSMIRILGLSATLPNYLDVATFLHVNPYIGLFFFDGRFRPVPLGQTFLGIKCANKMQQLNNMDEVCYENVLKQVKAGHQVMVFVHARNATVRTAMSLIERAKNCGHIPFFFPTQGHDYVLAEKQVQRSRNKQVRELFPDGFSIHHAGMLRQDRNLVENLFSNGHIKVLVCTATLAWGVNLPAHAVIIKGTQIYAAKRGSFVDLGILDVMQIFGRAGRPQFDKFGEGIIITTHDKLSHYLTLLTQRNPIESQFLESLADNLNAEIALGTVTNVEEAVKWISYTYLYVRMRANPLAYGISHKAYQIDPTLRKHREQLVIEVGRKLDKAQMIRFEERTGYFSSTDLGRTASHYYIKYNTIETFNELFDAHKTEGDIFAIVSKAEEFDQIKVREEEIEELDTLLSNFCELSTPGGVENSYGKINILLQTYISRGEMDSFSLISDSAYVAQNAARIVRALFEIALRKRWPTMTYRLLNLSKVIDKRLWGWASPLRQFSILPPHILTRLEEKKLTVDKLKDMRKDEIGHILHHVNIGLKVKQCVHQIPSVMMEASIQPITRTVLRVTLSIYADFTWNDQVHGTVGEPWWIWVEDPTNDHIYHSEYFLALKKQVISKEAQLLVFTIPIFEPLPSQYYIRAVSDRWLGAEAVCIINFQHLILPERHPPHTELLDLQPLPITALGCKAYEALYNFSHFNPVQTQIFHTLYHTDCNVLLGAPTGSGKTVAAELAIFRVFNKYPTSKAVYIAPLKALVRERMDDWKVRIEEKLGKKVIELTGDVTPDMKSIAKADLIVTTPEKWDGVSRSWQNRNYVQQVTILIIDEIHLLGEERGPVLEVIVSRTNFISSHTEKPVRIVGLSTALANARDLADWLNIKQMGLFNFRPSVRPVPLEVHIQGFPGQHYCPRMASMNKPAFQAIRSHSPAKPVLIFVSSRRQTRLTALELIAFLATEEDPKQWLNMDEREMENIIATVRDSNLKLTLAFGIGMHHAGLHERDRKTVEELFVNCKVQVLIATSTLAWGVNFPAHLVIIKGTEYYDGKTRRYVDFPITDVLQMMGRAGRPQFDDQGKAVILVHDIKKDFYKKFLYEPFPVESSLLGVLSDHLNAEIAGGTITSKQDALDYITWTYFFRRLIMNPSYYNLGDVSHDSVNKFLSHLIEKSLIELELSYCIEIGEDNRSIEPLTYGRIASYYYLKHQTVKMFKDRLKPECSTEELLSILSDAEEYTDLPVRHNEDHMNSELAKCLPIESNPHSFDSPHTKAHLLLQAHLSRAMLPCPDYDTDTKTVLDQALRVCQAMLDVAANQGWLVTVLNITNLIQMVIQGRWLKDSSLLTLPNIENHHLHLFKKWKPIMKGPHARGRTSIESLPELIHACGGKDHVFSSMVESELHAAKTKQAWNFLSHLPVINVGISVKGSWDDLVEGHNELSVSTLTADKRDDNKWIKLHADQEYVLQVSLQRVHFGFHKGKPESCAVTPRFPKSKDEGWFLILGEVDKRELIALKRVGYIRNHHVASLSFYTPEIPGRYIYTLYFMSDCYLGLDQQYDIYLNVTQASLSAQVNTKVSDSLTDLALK
UniProt Q9HD20: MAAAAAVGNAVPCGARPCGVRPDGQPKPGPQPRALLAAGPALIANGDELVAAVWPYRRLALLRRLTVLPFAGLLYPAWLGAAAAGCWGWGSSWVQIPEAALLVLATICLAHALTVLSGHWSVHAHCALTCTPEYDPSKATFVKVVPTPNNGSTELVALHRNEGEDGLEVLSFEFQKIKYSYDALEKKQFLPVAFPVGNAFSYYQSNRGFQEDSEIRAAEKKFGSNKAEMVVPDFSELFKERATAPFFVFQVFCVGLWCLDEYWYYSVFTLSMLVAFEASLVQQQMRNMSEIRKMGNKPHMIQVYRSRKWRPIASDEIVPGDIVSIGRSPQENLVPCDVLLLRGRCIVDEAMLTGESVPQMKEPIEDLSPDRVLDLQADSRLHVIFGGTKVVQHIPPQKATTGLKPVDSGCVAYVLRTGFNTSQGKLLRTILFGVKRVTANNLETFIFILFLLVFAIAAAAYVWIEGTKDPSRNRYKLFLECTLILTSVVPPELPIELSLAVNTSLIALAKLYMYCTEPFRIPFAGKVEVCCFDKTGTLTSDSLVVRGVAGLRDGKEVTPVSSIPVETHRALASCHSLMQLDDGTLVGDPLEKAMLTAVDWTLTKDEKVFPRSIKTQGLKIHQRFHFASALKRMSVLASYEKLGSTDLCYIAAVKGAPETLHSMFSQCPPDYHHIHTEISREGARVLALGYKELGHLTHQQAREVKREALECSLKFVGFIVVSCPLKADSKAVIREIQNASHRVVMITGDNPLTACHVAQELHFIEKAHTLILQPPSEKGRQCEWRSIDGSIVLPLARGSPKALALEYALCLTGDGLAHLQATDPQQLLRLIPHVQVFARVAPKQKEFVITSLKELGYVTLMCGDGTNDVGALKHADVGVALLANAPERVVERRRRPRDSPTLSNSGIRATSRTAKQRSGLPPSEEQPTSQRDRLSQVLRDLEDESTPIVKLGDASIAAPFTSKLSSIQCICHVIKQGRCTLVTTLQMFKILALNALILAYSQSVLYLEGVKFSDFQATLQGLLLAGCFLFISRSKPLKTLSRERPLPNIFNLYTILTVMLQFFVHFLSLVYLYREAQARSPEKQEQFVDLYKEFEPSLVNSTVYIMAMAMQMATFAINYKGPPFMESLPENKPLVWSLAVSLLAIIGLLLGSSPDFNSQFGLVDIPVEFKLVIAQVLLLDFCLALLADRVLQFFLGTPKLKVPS
UniProt P23634: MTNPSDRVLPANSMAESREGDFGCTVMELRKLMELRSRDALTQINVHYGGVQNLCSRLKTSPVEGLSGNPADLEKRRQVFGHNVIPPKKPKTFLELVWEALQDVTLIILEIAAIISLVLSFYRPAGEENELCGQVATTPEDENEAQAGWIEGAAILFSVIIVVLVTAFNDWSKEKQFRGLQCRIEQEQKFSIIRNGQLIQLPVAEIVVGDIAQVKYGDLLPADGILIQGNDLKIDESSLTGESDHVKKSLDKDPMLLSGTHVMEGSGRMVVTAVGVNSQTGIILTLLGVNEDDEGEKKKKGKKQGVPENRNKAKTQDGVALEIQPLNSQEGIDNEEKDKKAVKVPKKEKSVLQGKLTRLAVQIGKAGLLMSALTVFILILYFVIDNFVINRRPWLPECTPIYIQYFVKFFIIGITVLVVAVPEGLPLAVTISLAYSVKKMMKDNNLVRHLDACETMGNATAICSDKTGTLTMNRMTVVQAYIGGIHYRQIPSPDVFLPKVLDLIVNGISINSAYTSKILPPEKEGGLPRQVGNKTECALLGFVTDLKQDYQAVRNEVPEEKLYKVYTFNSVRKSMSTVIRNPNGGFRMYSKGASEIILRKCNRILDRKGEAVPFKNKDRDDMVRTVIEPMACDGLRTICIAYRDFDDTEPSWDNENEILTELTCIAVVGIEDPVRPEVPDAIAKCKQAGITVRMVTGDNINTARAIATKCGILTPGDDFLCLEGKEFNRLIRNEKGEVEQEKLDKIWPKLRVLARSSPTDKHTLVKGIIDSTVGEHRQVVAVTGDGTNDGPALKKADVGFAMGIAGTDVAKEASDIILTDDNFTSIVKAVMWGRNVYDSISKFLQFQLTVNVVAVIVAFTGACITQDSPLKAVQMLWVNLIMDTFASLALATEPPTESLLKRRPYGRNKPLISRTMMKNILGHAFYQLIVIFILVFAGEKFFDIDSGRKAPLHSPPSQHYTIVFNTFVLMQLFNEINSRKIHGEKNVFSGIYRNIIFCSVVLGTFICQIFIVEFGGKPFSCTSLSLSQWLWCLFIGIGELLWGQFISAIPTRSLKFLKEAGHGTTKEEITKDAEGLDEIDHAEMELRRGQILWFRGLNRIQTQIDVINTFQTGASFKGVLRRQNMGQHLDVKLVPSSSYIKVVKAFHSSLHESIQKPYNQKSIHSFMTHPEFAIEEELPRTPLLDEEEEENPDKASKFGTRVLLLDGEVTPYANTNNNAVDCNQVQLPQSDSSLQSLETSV
UniProt Q9ULH1: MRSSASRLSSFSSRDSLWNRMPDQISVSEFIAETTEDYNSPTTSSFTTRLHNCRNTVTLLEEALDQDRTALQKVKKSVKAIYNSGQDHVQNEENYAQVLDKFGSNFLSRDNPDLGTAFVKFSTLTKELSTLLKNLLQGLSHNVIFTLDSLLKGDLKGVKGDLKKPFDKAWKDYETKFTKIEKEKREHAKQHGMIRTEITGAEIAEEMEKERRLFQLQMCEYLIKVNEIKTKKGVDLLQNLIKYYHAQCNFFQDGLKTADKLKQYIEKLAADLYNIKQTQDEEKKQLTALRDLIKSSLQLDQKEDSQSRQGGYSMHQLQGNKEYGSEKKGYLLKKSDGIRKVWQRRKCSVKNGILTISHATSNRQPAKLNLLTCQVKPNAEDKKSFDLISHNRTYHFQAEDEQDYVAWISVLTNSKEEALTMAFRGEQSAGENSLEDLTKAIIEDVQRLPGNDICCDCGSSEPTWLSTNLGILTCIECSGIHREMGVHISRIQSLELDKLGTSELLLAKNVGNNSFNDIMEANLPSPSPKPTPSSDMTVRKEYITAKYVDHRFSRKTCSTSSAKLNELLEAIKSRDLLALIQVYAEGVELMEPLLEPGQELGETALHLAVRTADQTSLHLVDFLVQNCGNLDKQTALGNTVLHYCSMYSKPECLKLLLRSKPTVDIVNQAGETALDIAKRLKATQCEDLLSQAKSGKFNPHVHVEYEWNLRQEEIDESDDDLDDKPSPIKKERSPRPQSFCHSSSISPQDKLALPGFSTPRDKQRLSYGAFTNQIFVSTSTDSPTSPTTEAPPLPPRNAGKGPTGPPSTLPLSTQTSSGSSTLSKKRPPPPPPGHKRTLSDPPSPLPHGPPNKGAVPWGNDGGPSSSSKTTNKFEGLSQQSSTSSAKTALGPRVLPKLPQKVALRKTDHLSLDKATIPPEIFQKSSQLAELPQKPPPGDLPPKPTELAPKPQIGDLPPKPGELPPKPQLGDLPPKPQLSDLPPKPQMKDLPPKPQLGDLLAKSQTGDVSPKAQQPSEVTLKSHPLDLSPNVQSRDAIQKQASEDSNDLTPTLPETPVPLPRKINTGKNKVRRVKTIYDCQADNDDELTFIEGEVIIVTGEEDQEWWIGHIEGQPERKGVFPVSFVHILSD

The list shows a part of the results.
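Note: competitive profiling in live THP-1 cells: cysteine peptides tagged with an iodoacetamide desthiobiotin (IA-DTB) probe, intensity after compound treatment relative to DMSO-treated cells.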

For the target “ATRX_P46100_220_DSDGMDEQCR (UniProt P46100)”, the “probe-labelled cysteine peptide fold change” value reads like this: (10 µM) -0.206; (50 µM) -0.539.

Take “ATIC_P31939_101_VVACNLYPFVK (UniProt P31939)”: the “probe-labelled cysteine peptide fold change” value by setting is: (10 µM) 0.119; (50 µM) 0.0511.

On to “ASCC3_Q8N3C0_366_KAGEDLEVSEGLMCFDPK (UniProt Q8N3C0)”, for which the “probe-labelled cysteine peptide fold change” value runs as follows: (10 µM) -0.217; (50 µM) -0.375.

For the target “ATAD2_Q6PL18_1246_NNSNTCNIENELEDSRK (UniProt Q6PL18)”, the “probe-labelled cysteine peptide fold change” value runs as follows: (10 µM) -0.37; (50 µM) 0.0325.

As to “ATRX_P46100_1760_IILTGTPLQNNLIEYHCMVNFIK (UniProt P46100)”, the “probe-labelled cysteine peptide fold change” value was -0.047 (10 µM) and 0.0522 (50 µM).

Consider “ATIC_P31939_363_KKNGNYCVLQMDQSYKPDENEVR (UniProt P31939)”, for which the “probe-labelled cysteine peptide fold change” value by setting is: (10 µM) 0.168; (50 µM) -0.0544.

For “ATP1A1_P05023_464_CIELCCGSVK (UniProt P05023)”, the “probe-labelled cysteine peptide fold change” value runs as follows: (10 µM) 0.0291; (50 µM) -0.539.

As for “ATG16L2_Q8NAA4_319_YQIIPVCVAAR (UniProt Q8NAA4)”, the “probe-labelled cysteine peptide fold change” value is -0.12 (10 µM) and -0.241 (50 µM).

With “ARRB2_P32121_270_CPVAQLEQDDQVSPSSTFCK (UniProt P32121)”, the “probe-labelled cysteine peptide fold change” value by setting is: (10 µM) 0.16; (50 µM) 0.348.

Turning to “ATP13A1_Q9HD20_13+18_AAAAAVGNAVPCGARPCGVRPDGQPK (UniProt Q9HD20)”, the “probe-labelled cysteine peptide fold change” value (10 µM) is -0.44 and the “probe-labelled cysteine peptide fold change” value (50 µM) was -0.541.

On to “ATP2B4_P23634_537_TECALLGFVTDLK (UniProt P23634)”, for which the “probe-labelled cysteine peptide fold change” value by setting is: (10 µM) -0.201; (50 µM) -0.0556.

Consider “ATG7_O95352_368_CLLLGAGTLGCNVAR (UniProt O95352)”, for which the “probe-labelled cysteine peptide fold change” value by setting is: (10 µM) 0.0907; (50 µM) 0.527.

As to “ATP6V1H_Q9UI12_312_QEYALAMIQCK (UniProt Q9UI12)”, the “probe-labelled cysteine peptide fold change” value came to 0.00511 (10 µM) and 0.175 (50 µM).

Turning to “ATG16L1_Q676U5_145_IAECLQTISDLETECLDLR (UniProt Q676U5)”, the “probe-labelled cysteine peptide fold change” value by setting is: (10 µM) 0.211; (50 µM) 0.204.

In the case of “ATAD2B_Q9ULI0_816_TPEESCAQIFR (UniProt Q9ULI0)”, the “probe-labelled cysteine peptide fold change” value (10 µM) was -0.154 and the “probe-labelled cysteine peptide fold change” value (50 µM) was determined as 0.0836.

Regarding “ATR_Q13535_2497_HGENILFDSLTGECVHVDFNCLFNK (UniProt Q13535)”, the “probe-labelled cysteine peptide fold change” value worked out at 0.328 (10 µM) and 0.4 (50 µM).

With “ATP1A1_P05023_374_NLEAVETLGSTSTICSDK (UniProt P05023)”, the “probe-labelled cysteine peptide fold change” value reads like this: (10 µM) -0.155; (50 µM) 0.0239.

Take “ASCC3_Q8N3C0_1283_WLGAEAVCIINFQHLILPER (UniProt Q8N3C0)”: the “probe-labelled cysteine peptide fold change” value was determined as 0.196 (10 µM) and 0.705 (50 µM).

As to “ATP6V0A2_Q9Y487_323+330_CLIAEVWCPEADLQDLRR (UniProt Q9Y487)”, the “probe-labelled cysteine peptide fold change” value (10 µM) was 0.0292 and the “probe-labelled cysteine peptide fold change” value (50 µM) was -0.302.

As to “ASAP1_Q9ULH1_557_TCSTSSAK (UniProt Q9ULH1)”, the “probe-labelled cysteine peptide fold change” value was -0.0474 (10 µM) and -0.132 (50 µM).

Turning to “ASNA1_O43681_289_IDTHNIIVNQLVFPDPEKPCK (UniProt O43681)”, the “probe-labelled cysteine peptide fold change” value is 0.23 (10 µM) and -0.0111 (50 µM).

In the case of “ATP13A1_Q9HD20_723_FVGFIVVSCPLK (UniProt Q9HD20)”, the “probe-labelled cysteine peptide fold change” value is -0.202 (10 µM) and 0.197 (50 µM).

On to “ATP2B4_P23634_55_DALTQINVHYGGVQNLCSR (UniProt P23634)”, for which the “probe-labelled cysteine peptide fold change” value runs as follows: (10 µM) -0.261; (50 µM) 0.162.

In the case of “ATG9A_Q7Z3C6_122_VTLPDAFLPAQVCSAR (UniProt Q7Z3C6)”, the “probe-labelled cysteine peptide fold change” value (10 µM) came out at 0.167 and the “probe-labelled cysteine peptide fold change” value (50 µM) turned out to be 0.186.

On to “ATP13A1_Q9HD20_711_EALECSLK (UniProt Q9HD20)”, for which the “probe-labelled cysteine peptide fold change” value was -0.0396 (10 µM) and 0.00247 (50 µM).

In the case of “ATP2A2_P16615_635_GTAVAICR (UniProt P16615)”, the “probe-labelled cysteine peptide fold change” value by setting is: (10 µM) 0.0523; (50 µM) 0.175.

For the target “ASTE1_Q2TB18_640_QNTSCSK (UniProt Q2TB18)”, the “probe-labelled cysteine peptide fold change” value is -0.306 (10 µM) and -0.653 (50 µM).

For “ATP13A1_Q9HD20_336_SPQENLVPCDVLLLR (UniProt Q9HD20)”, the “probe-labelled cysteine peptide fold change” value is, setting by setting: (10 µM) 0.172; (50 µM) 0.0583.

For “ASMTL_O95671_274_AEAGEAGQATAEAECHR (UniProt O95671)”, the “probe-labelled cysteine peptide fold change” value is, setting by setting: (10 µM) -0.203; (50 µM) -0.275.

Turning to “ASAP1_Q9ULH1_219_LFQLQMCEYLIK (UniProt Q9ULH1)”, the “probe-labelled cysteine peptide fold change” value reads like this: (10 µM) 0.163; (50 µM) 0.331.

The values are drawn from the supplement of paper PMC12067093, “Discovery and optimisation of a covalent ligand for TRIM25 and its application to targeted protein ubiquitination” (Chemical Science, 2025).
